Laboratory results taken from paper PMC6707328.
Results are given in words; binding and its absence hold for the method and conditions named. In cells and extracts the contact can be indirect. Some results given as binding are weak or reduced against the parent protein; the word gives no strength.

Protein sequences, listed by entry. Tags and fused reporters are not part of them.
UniProt P47239: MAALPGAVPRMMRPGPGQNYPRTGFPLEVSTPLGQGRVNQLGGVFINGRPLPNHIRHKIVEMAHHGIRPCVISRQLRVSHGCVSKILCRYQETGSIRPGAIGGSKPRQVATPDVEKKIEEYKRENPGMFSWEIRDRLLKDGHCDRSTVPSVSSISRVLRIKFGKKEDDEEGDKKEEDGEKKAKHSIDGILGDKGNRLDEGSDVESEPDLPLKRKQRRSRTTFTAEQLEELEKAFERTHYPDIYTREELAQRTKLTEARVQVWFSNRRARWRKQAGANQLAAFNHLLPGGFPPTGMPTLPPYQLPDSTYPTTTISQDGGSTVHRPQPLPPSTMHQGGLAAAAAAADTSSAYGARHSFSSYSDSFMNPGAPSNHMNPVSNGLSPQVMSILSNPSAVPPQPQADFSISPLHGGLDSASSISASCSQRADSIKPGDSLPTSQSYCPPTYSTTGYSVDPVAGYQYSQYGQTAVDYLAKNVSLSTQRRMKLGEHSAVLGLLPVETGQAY

Assays:
[1] = target: MBP-Pax7 (UniProt P47239); assay: pull-down; MBP fusion proteins on maltose amylose beads incubated with 35S-labeled in vitro translated protein in TNEN50 (50 mM Tris pH 7.5, 5 mM EDTA, 50 mM NaCl, 0.1% NP-40) with 1 mM PMSF and 2% BSA, 4 h at 4 °C; three washes with TNEN125; SDS-PAGE and autoradiography; only the target purified
[2] = target: MBP-βGal [β-galactosidase: P00722]; assay: as above

binding [1]: binds | binding [2]: no binding
B1: Tpit (protein, UniProt Q99ME7 1-446)
chain: MSELATQKAGEGTVSRLLNVVESELQAGREKGDPTEKQLQIILEDAPLWQRFKEVTNEMIVTKNGRRMFPVLKISVTGLDPNAMYSLLLDFVRTDSHRWKYVNGEWVPAGKPEVSSHSCVYIHPDSPNFGAHWMKAPISFSKVKLTNKLNGGGQIMLNSLHKYEPQVHIVRVGGAHRMVMNCSFPETQFIAVTAYQNEEITALKIKYNPFAKAFLDAKERNHLKDVPEAISESQHVTYSHLGGWILSNPDGVCTAANSNYQYATPLPLPAPHTHHGCEHYAGLRGHRQAPYPSAYMHRNHSPSVNLIESSSNNLQVFSGPDSWTSLSSTPHASILSVPHSNGPINPGPSPYPCLWTISNGGGGPVASGSEVHASTSGTILLGNPAVTSPSSLLPTQATTSAGVEVLGEPSLTSIAVSTWTAVASHPLPGWGGPGGAGRHSSSSLDS
modifications: 35S-labeled
